The values that follow are results of earlier work, collected in US20200000750A1, “Composition for Treating Acute and Chronic Pain” (priority 2018, published 2020).

Molecules are shown by their SMILES.

The subject of the series is acute attacks of gout. To be noted: literature; colchiceine at 5 to 8 mg orally.

Regarding `COc1cc2c(c(OC)c1OC)-c1ccc(SC)c(=O)cc1[C@@H](N)CC2` [desacetylthiocolchicine], the “anti-gout effect in acute attacks of gout” value was “equivocal results”.
